Results published in PubChem BioAssay AID1508600 (Functional Genomics Laboratory (NCATS/FGL), 2020).
Screen size: about 53,000 sequences; about 3,700 (7%) were called active.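 Rule for the calls: active = gene knockdowns whose robust z-score for IL-1 alpha signal is at least 2 or at most -2, so actives lie on both sides; inactive = the rest.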 Some of the results follow.

Experiment: Components of the Cytosolic LPS Sensing Pathway: Gene Identification via Genome-wide siRNA Screen;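 note: robust z of the log signal after scaling to non-targeting control siRNA wells of the plate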
Details: RAW264.7 macrophages, IL-1a HTRF, actives lie on both sides, screened at 100 nM (by protocol), cells primed 5 h with Pam3CSK4 first
Procedure, shortened: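 RAW264.7; siRNA 100 nM final, RNAiMAX, 48h 37 degrees C; Pam3CSK4 5 h; LipidA + TransIT-TKO 24 h; IL-1a HTRF; CellTiter-Glo viability; robust z vs negative-control median.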

| Sequence | z-score |
| --- | --- |
| GCUAAUGACUUCUUCAGACTT against Slc25a22 | inactive: 1.75 |
| GGAUCCUAAUGAGGACAUUTT against Jchain | active: 2.75 |
| GGAAUCUGUUGAACAUAUCTT against Csn2 | inactive: 1.28 |
| GGACCUGAAGAAAUAUUUCTT against Cdk5 | inactive: -1.18 |
| GCCAAACGCAUCAUGGAAATT against Arglu1 | inactive: -0.59 |
| GGAAAGAGAUGAGAAUUUUTT against 4930447C04Rik | inactive: -0.275 |
| UCACCCUGUUCGUAAUCAUTT against Olfr467 | inactive: -0.17 |
| GGAGUGUUGAAGAAUAAGATT against St3gal6 | inactive: 0.68 |
| CCUAGAUGUUUGUUUGGCUTT against Antxr2 | inactive: -0.0859 |
| CGUGCAUGUGUAAGUCAGGTT against Hpvc2 | inactive: 0.68 |
| CGAAUGUGUGAGAGAACAUTT against Zfp322a | inactive: -0.492 |
| GGAAGAAAUGAUAUUCUCATT against Nek11 | inactive: -0.518 |
| GGUGACCUCACAUUUGACUTT against Dpagt1 | inactive: 0.297 |
| GGUAUAUGUCACAAUGCAUTT against Farsa | inactive: 0.759 |
| GCAAGGAGACCGAUAUCAATT against Huwe1 | inactive: 0.167 |
| GGGCAGGGACAUUAGUCAUTT against Zfp106 | active: 2.88 |
| GGACACUUCCAAGUAUUGGTT against Tns1 | active: -2.11 |
| GGUGCAACAAUAUGAGACATT against Prom2 | inactive: 0.515 |
| CCAAACUUAAGCCUAUUCUTT against Mme | inactive: 1.32 |
| GGUUGCUCGGUUAGACUGUTT against Ipo11 | inactive: 0.362 |
| GGAGGAUAGUACCAAGCAATT against Timm21 | inactive: 0.283 |
| GCAAAGGAUUUGACUUCUATT against Vwa3b | inactive: -0.258 |

| Sequence | z-score |
| --- | --- |
| GGUCCUCAGAAUGUAACAGTT against Igsf5 | inactive: -1.19 |
| GGAUGUUUGGACCAAUCACTT against Iba57 | inactive: -0.962 |
| GCUAUGAAAGGGCGAUUUGTT against Optn | inactive: -0.17 |
| GGAAAUUCACUUCAAUGAUTT against Dennd4a | inactive: 0.12 |
| GCAUCUCUCUAAUAGCCUUTT against Nop16 | inactive: 1.24 |
| GGAUUACGCAGAUUCCAUUTT against Rab22a | inactive: -0.474 |
| GGCAUCACUGGUAAACAUUTT against Frzb | inactive: -0.196 |
| GGAUGGAUGAUCCAUACUGTT against Sell | inactive: -0.0321 |
| GGAGUUCUUUCUGAUAUCATT against Net1 | inactive: -1.24 |
| GGGAGACUGGUUCUUGAAGTT against Slc38a5 | inactive: 1.81 |
| GCAUGACAGUCAACACAAGTT against Slc35f6 | active: 2.04 |
| GCUUGUACUCUUUGGCCGGTT against Rabac1 | inactive: 1.68 |
| GGUACCUCUGGAAAAUGAGTT against Rfng | inactive: 1.44 |
| GCUUUUUGUGAAACUGGCCTT against Pstpip2 | inactive: 0.191 |
| GGCUACCAGUUUAUCCACATT against Has3 | inactive: -1.55 |
| GGGAAUGUAUCCACAUCAATT against Btbd35f1 | inactive: -0.0841 |
| GGCCAUUGCCAAGCACAAUTT against Trim35 | inactive: 0.847 |
| GGAGAAGUGGGUUAAGAAUTT against Ccl12 | inactive: -1.08 |
| CCAAUUGCUCUCCAUGAAATT against Coro1c | inactive: 0.331 |
| CGAGACAGUUUCCAUAGCGTT against Spen | inactive: -0.271 |
| CCACAUUAGGUGGAUAGGATT against E2f6 | inactive: -0.534 |
| GGCAUUUCAUAGAGAGAAUTT against LTO1 | active: -2.21 |

Quoted at random: 4 entries already listed

| Sequence | z-score |
| --- | --- |
| CCACAUUAGGUGGAUAGGATT against E2f6 | inactive: -0.534 |
| GCUUUUUGUGAAACUGGCCTT against Pstpip2 | inactive: 0.191 |
| GGGAGACUGGUUCUUGAAGTT against Slc38a5 | inactive: 1.81 |
| GGAGAAGUGGGUUAAGAAUTT against Ccl12 | inactive: -1.08 |

Continuation:

| Sequence | z-score |
| --- | --- |
| GGCUACGUAGAUGUUGUAATT against Ankrd17 | inactive: -0.627 |
| CGGGACCUUUGUAACAGCUTT against Sirt3 | inactive: 0.546 |
| GGCUCUGACCAAGAAUGAUTT against Cpsf1 | inactive: 1.27 |
| GGACCCGUAUUUUAUGAAGTT against Sf3a2 | inactive: 1.17 |
| CCAAAUGGAGGAGAUUAGCTT against Ccdc7a | inactive: -0.353 |
| GGCUCCAAGGGAUUUGGUUTT against Rbfox1 | active: 2.77 |
| CCUAGUGAGCACUGUACUUTT against Olfr988 | inactive: 0.0962 |
| GCAGUUAUAUGCUCAAGAUTT against Pik3r3 | inactive: 0.0211 |
| GCUUUUUGACUACGUAGCCTT against Hkdc1 | inactive: 0.0141 |
| GCCCAUUCAUAUGUAUAUCTT against Clpp | inactive: -1.07 |
| GGAGGUUUUGAAAUAGUCATT against Kdm5a | inactive: 0.36 |
| GGGCAGGAAAAAAAAUUCATT against Vps13b | inactive: 1.68 |
| GGUGUGACACCUAAGAUGATT against Tspyl3 | inactive: 0.689 |
| GGUUGUGAUCUUGAAACUUTT against Tbc1d23 | inactive: -0.562 |
| GGACAUGAGUUACAUGACATT against Galnt5 | inactive: 0.146 |
| GGUGGUUUCACUCCAGAUGTT against Rrp1 | inactive: -0.0525 |
| GGCCAUGAUUUACGACGACTT against C1qtnf4 | inactive: -1.22 |
| GCAUGCAAUGUUUUUCGUATT against Hyal6 | inactive: -1.12 |
| CGUGACCAUCAGGCUAAAGTT against Ecrg4 | active: 3.42 |
| GGAAAAACCAAGGUAGAGGTT against Pick1 | inactive: -1.38 |
| GGAAAACAAGACAGUUUCGTT against Rab10os | inactive: -0.78 |
| GCCCUUGGAAACACCAAUATT against Mustn1 | inactive: -0.0855 |

| Sequence | z-score |
| --- | --- |
| GGGAUAGUUACAUCGAAGUTT against Acot9 | inactive: -0.631 |
| GCAGUAUGCACACCUGGAGTT against Nrde2 | inactive: 1.87 |
| GCACUGUUGUACUUGACUGTT against Fancg | inactive: -0.0674 |
| UUCGUUCAAAUGAAGCUUCTT against Ankrd13c | inactive: 0.617 |
| GGAAAAACUUCAGGAAGAATT against Mrpl21 | inactive: 0.8 |
| GGAAGCACUGAUGAAUUAUTT against Acer3 | inactive: 1.49 |
| CCAACUCGAAGCAAUAUGCTT against Morf4l2 | inactive: 1.24 |
| GCAAUGUUUACGAAUGAGGTT against Fam136a | inactive: -1.24 |
| CGGCCUGUAAGAACAAACATT against Cdc37l1 | inactive: -0.381 |
| GGUUGUGCUGAAGAAUUCUTT against Cspg4 | inactive: -0.464 |
| GCAUGAGAGCCUAUGCAGCTT against Man2b2 | inactive: -0.0341 |
| GGAACUGGUAAAUUUGUAATT against Abhd17b | inactive: -0.26 |
| GGAGAAAGGAGACCUAAAGTT against Mmab | inactive: 1.29 |
| CCUGUUUAAACUCUGCGGATT against Vit | inactive: 0.678 |
| GGACAAUUGAGGAACUUCUTT against Tkt | inactive: 0.944 |
| GCUAGGUAUACAGCCAAAGTT against Spryd4 | inactive: -0.699 |
| GGAGACAGAAUCAUAGUUATT against Sh3yl1 | inactive: 0.0505 |
| GGAUAUCUUCAUAUUGGUGTT against Ces1f | active: 4 |
| GGAAAAUAUGUGUAGGGAATT against Nkx2-2 | inactive: -0.882 |
| GGUGAACAGAAUAUAUGGATT against Olfr629 | inactive: -1.21 |
| CCUUCACACUUAAUAGAGGTT against Ifitm3 | inactive: 0.892 |
| GGACAAACAGCUUCAAGAUTT against Psmd2 | active: -2.26 |

| Sequence | z-score |
| --- | --- |
| GGUUUUGGACACACUAUUUTT against Tmem184c | inactive: 0.103 |
| CCAGUGACAUUCAAUACCUTT against Lrif1 | inactive: -1.52 |
| GGACCAUACUGGAUAAGGATT against Ccl12 | inactive: -1.47 |
| CCACAUCUCAUGUGAAACCTT against Olfr517 | inactive: -0.927 |
| GCCAUCACUGAAUUAAGAUTT against Pcdhb11 | inactive: -0.018 |
| CCUCUAGUAAAGAAAUAGATT against Srsf11 | inactive: 0.0296 |
| CCUAUUGAUUGUAUAUCCATT against Emc2 | inactive: -0.429 |
| GGACAAUGAAGGAAUUGAUTT against Mdm4 | inactive: -0.579 |
| GCCCGCACAAUCGUACUUUTT against Ccl28 | inactive: -1.2 |
| CCUCGUAUUUAUACUCAGUTT against Gpr18 | inactive: 0.3 |
| GGAAUGUUGUUCUCAAGAUTT against Ddhd1 | inactive: 0.216 |
| GGUACUAAACUUCUUCAACTT against Rsu1 | inactive: 0.159 |
| CCACCCAACCAGGUAACUATT against Fam184b | inactive: -1.1 |
| GGAAGAAACCUCUUCGAGATT against Hmg20a | inactive: 0.608 |
| GGUGAACAGAGCUCAUAAUTT against Specc1 | inactive: 0.172 |
| GGAAACAAGAUUACAUCAATT against Adamts2 | active: 2.04 |
| GGGUCUACAAUCACCAGACTT against Wnt10a | inactive: 1.15 |
| CCAAACUAUAGUGAACUUATT against Irak4 | inactive: -1.27 |
| GGCUAAAUUUGAAGAUGAUTT against Ecrg4 | inactive: -1.22 |
